Measured values as given in paper doi:10.1101/2025.08.28.672867, “Catalytic pocket of Clr4 (Suv39h) methyltransferase serves as a substrate receptor for Cullin 4-dependent histone H3 ubiquitination” (bioRxiv, 2025).
These are yes or no findings as the source states them, for the method shown. For some of these results: In cells and extracts the contact can be indirect. Some results given as binding are weak or reduced against the parent protein; the word gives no strength. Tags and fused reporters may be left off the sequences shown.

The chains behind the UniProt entries cited, without tags or fusion partners.
UniProt O60016: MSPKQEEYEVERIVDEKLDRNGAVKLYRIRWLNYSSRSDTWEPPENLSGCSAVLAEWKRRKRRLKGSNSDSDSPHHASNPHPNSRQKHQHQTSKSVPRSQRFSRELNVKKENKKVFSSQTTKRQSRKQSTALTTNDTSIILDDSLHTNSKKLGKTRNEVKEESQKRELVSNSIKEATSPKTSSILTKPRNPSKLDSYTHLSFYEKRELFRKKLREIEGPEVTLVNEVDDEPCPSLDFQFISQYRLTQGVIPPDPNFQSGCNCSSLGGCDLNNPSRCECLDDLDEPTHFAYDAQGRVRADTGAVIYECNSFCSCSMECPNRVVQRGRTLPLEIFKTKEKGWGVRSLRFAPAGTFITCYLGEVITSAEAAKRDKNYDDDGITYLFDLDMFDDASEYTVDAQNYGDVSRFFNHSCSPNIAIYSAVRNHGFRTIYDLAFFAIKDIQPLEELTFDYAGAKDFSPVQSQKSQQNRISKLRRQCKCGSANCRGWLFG

T1: 6×His-MBP-Raf1 (S. pombe), O74910
T1 chain: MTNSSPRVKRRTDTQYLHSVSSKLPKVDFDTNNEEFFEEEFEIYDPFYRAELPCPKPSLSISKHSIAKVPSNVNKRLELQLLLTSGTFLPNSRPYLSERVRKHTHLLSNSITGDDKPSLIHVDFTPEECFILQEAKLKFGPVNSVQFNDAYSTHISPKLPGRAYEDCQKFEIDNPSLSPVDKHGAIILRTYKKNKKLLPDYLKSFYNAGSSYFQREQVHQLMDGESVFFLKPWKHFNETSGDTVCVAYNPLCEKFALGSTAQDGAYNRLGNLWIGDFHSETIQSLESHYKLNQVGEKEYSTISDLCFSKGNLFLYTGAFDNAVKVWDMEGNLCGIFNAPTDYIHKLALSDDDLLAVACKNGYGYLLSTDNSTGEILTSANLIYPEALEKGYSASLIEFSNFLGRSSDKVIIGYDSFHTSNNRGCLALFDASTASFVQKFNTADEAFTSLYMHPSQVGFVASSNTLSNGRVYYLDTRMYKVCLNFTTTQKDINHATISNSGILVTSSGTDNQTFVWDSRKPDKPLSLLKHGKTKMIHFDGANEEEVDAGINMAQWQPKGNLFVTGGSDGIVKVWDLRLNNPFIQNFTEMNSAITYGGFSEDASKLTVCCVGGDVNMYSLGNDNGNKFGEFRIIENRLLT

T2: 6×His-MBP-Raf1 (S. pombe, UniProt O74910 1-638)
T2 construct: Raf1 (Rik1-associated factor 1, DDB2 homolog), S. pombe; Expressed from one bacmid with Raf2, Rik1 and Cul4 and purified with them; A TEV site lies between MBP and Raf1; also called Raf1-MBP; Raf1 (DDB2 homolog); source: Hi5 insect cells (baculovirus), purified (Ni-NTA, amylose, SEC) together with Raf2, Rik1 and Cul4; not shown: His6, N-terminal, kept; MBP, N-terminal, kept
T2 sequence (looked up): T1 chain

B1: Raf2 (untagged), O74560 1-636 (protein)
chain: MPPVRAEKKRKTDLIEQVCVTNKAGELVDLEDVLEYGPYSLTGILSSEKDEQEPLFDESIVLGYSIKISPVWTYNLKDVPEKETMSIWIVTPQRRYGILSPSSEYKAIYEQISEKNRLFYLIKTKFKDDMISGTLEDYDNYIEVLKEKLELPSCFQAILLVQKHIRFLLTQMVATSSLHVWSESPFFIRIRSSYEHLILQINKNIYNARQERKKSKLSSNNPSDNNTTMKSSLNQALTLINLPEQPFSISSPTATPQLGVVKRTSPLRFPLNDIWLSGLRIVDPNIESISLWKRIQVSTSPKHQRYISLQEVCSVIAQQLQITNLEALNKLSSHGETLLQIMHTAFTWRGTKLFNDIKHAIGFRSSVQQARSQFRGYCYDYLFMHCNNGEKTSLHLLRTLICMKLDFSNAQLAAKILFHFLLFDIGSGLSGSDYTYEQYINHSAVAFSFTEEIFEKNFVTVLPDFVKLFSISFGYWPAFSFYDELLKLLRNKYPKVYSSTPNLCDQVWLDRTNLFPCNRSTRSTLPYRPTKLLDLASASSCLSKKETDFKQDTGLYSYNLEKVEALKVSPDLQTGIWSCPVQNCLYFAVCDNPYKPSQVIYDHLLGHVDSKFIFKTPSNSVRSFTNKLEHIMYNIN
B2: Rik1-myc (protein, UniProt Q10426 1-1040)
chain: MALCVHSFWATAVDTATSCHFISSENCLVLLQALKINIYLCSEVHGLQFFTSIPLFSTVKHIRPYRPPGLDRDYLFVVLNDDTYFSIYWDEDYQKVIVDHPPVRYRVTFPWNRNAKSYCLVDLRMRAIFLSIDEISMICIRILSAEERLKTGRSIDSGFPFSFPVHLIYDMCILNDSSTPTLVVLHSDGLDCYVTAFLLDLSSKSLGKGIRLFERVKPSMIMPFGKRGLLVFESLFIHCMYRGNFVTINGPCTTYMHWTPLKGQKMHYIVCDTNGYLFGVYSSILGKNKWSLVMERLPIPPFDFITSLNSIHEGLLFIGSKNSESKLINLSTLKDVDSIPNLGPIHDLLVLKNDIEKSFLVCAGTPRNASLIYFQHALKLDILGQTKISGILRAMVLPSYPEHKLFLGFPSETVAFNIKEDFQLELDPSLSTKERTIALSGTNGEFVQVTSTFLCIYDSAKRSRLVYIEKITNAACYQEYSAIVINGTALAIFKKDTEVARKVFESEISCLDFSAQFQIGVGFWSKQVMILTFSDNSSISCAFQTNVPSLPRNIILEGVGVDRNLLLVSSGSGEFKSYVLFKNNLVFSETKHFGTTPVSFRRFTMNIGTYIICNNDCPHMVYGFNGALCYMPLSMPQSYDVCQFRDNSGKDFLISVSLGGLKFLQLNPLPELTPRKVLLEHVPLQAIIFQNKLLLRTLENRYEDYESYKENYHLELVDSYDDNSFRVFSFTENERCEKVLKINESSLLVGTSIIEQDKLVPVNGRLILLEFEKELQSLKVVSSMVLSAAVIDLGVYNDRYIVAFGQQVAIVKLTEERLMIDSRISLGSIVLQLIVEGNEIAIADSIGRFTIMYFDGQKFIVVARYLFGENIVKAALYEGTVYIIATNSGLLKLLRYNKDAKNFNDRFICESVYHLHDKVSKFQNFPITNTNSFLEPKMLFATEIGAIGSIVSLKDKELELEELTRKIRKLKFSYLSSMDYESIEADLISPVPFIDGDLVIDVKRWASSELFRLCRSVEHRESLNSYQKVQALLEEIQSLC
B3: Rik1 (untagged) (protein, UniProt Q10426 1-1040)
chain: B2 chain
B4: Cul4 (untagged) (protein, UniProt O14122 1-734)
chain: MPPEAKRIVVKGFDPRKSRQRQETYYVTMIDRLNMALQVVMAGLGLKTGYQELYSGVENLTRADQASRCFNILQHHMSSGIQLLKDSAESFIQLEGTETDTNACTVVVGCWNKWLERVEIVQNIFYYMDKTFLSHHPDYPTIEELSLSLFREKLMAVKNIQIPFLNSLLQSFENLHSSKSTDHAYLQDAMLMLHRTEMYSSVFVPMYLVMLSRFYDTESSQKIQELPLEEYLEYAMSSLEREDAYVEKFDIVRDKKSIRETVQRCLITSHLDTLTKGISQFIEKRDAHSCKLLYALLQFNHETEYLIQPWSDCLVDVGFKLVNDESKDDTLVQELLSFHKFLQVVVDESFLHDETLSYAMRKAFETFINGAKGSQREAPARLIAKYIDYLLRVGEQASGGKPLKEVFSEILDLFRYIASKDIFEAYYKLDIAKRLLLNKSASAQNELMLLDMLKKTCGSQFTHSLEGMFRDVNISKEFTSSFRHSKAAHNLHRDLYVNVLSQAYWPSYPESHIRLPDDMQQDLDCFEKFYLSKQVGKKISWYASLGHCIVKARFPLGNKELSISLFQACVLLQFNNCLGGEGISYQDLKKSTELSDIDLTRTLQSLSCARIRPLVMVPKSKKPSPDTMFYVNEKFTDKLYRVKINQIYLKEERQENSDVQEQVVRDRQFELQASIVRVMKQKEKMKHDDLVQYVINNVKDRGIPLVSDVKTAIEKLLEKEYLEREDNDIYTYVT

Legend:
[1] = target: T1, 6×His-MBP-Raf1 (S. pombe), O74910; experiment: two-step affinity co-purification (Ni-NTA, amylose) + SEC; 6×His-MBP-Raf1, Raf2, Rik1 and Cul4 co-expressed from one bacmid in Hi5 cells; purified through the tags of Raf1; Superose 6 Increase 10/300 in 20 mM HEPES pH 7.5, 300 mM NaCl, 1 mM TCEP, 1 mM MgCl2, 10% glycerol; all 4 subunits in a single peak; conditions: remark: other sources report otherwise
[2] = target: FLAG-Clr4 (N-terminal 3×FLAG), wild type (S. pombe) (UniProt O60016); experiment: co-IP; S. pombe lysates (wild-type, cul4-K680R and cul4–1 cells), Benzonase treated; 20 mM HEPES pH 7.5, 100 mM NaCl, 5 mM MgCl2, 1 mM EDTA, 10% glycerol; antibody cross-linked to Protein A or G beads, 3 h at 4 °C; western blot
[3] = target: T2, 6×His-MBP-Raf1; experiment: two-step affinity co-purification (Ni-NTA, amylose) + SEC; 6×His-MBP-Raf1, Raf2, Rik1 and Cul4 co-expressed from one bacmid in Hi5 cells; purified through the tags of Raf1; Superose 6 Increase 10/300 in 20 mM HEPES pH 7.5, 300 mM NaCl, 1 mM TCEP, 1 mM MgCl2, 10% glycerol; all 4 subunits in a single peak

Binder	binding [3]	also measured
B1	–	binding [1]: binds
B2	–	binding [2]: binds
B3	binds	–
B4	binds	–
